About 18,000 (4.4%) of roughly 410,000 compounds were called active. Inconclusive means that the source gave no clear call. Such entries were picked first, then a sample of the others. No stated cut-off is given here; in the data, active means activity change below about -60%; inconclusive means no clear call, values can overlap the other calls; inactive means above about -39%.
test: qHTS Assay for inhibitors of the human cytomegalovirus (HCMV); details: HFF cells, HCMV-luciferase reporter, 72 h; at 57.5 µM; stronger effect = lower value
How it was run: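 Cell-based, HFFs, 1000 cells/well, 16 h 37C; cpds in DMSO + HCMV-luc, MOI 1 PFU/cell; 72 h 37C; OneGlo luminescence after 5 min RT; norm. to buffer vs Salinomycin 10uM.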
On the % scale 0 is the no-effect control and ±100 the full control effect.

Structure (SMILES) | activity change, negative = inhibition
CC1=C(C(=O)Nc2ccccc2)C(c2ccncc2)n2nc(SCc3ccccc3)nc2N1 (stereo not drawn) | inactive: 4.04%
Cc1cccc2cc(C#N)c(SCC#N)nc12 | active: -66.7%
Cc1c(C(=O)N(C)CCn2ccnc2C)oc2c(F)cccc12 | inconclusive: -48.4%
CSCC[C@H](N)C(=O)NC[C@H]1CC[C@H](C(=O)N[C@@H](Cc2ccccc2)C(=O)O)CC1 | inconclusive: -41.9%
Cc1nc(NC(=O)c2ccccc2)sc1C | inactive: 37.8%
CC(C)CN(CC(C)C)C(=O)Nc1ccccc1F | inconclusive: -48.8%
COc1ccccc1NC(=O)C(=O)/C=C(\O)c1ccccc1 | inactive: 52.1%
Cc1ccccc1NS(=O)(=O)c1cc(C(=O)NCCC2=CCCCC2)ccc1C | inconclusive: -44.6%
CCCCN(C)S(=O)(=O)c1ccc(C(=O)Nc2nnc(CSC)o2)cc1 | inconclusive: -48.4%
CC(=O)c1ccc(N(CC(=O)NC2CCCCC2)C(=O)CNC(=O)c2ccco2)cc1 | inactive: 14%
CCOCCOC(=O)c1[nH]c2c(c1C)C(=O)CC(c1ccc(OC)c(OC)c1)C2 (stereo not drawn) | inconclusive: -44.3%
C=CCn1c(=O)[nH]c2cc(C(=O)N3CCN(c4cccc(Cl)c4)CC3)ccc2c1=O | inactive: -0.105%
O=C(Nc1nnc(SCc2cccc3ccccc23)s1)C1COc2ccccc2O1 (stereo not drawn) | inconclusive: -40.2%
COc1ccc(N2CCN(C(=O)Cn3cnc4c3c(=O)n(C)c(=O)n4C)CC2)cc1 | inconclusive: -50.1%
COC(=O)CN(c1cc(Cl)ccc1OC)S(=O)(=O)c1ccc(C)cc1 | inconclusive: -50.4%
COc1cccc(NC(=O)c2cc(CN3CCOCC3)on2)c1 | inactive: 37.3%
Cc1cc(C(=O)N/N=C/c2c(C)nn(-c3ccccc3)c2C)n[nH]1 | inactive: 13%
Cc1cccc2c1-c1sc(C(=O)NCc3ccccc3Cl)cc1CO2 | inactive: -4.77%
Cc1ccc(NC(=O)c2cc(-c3ccc4c(c3)OCO4)on2)cc1 | inconclusive: -46.4%
COc1ccc(-n2c(C)ccc2-c2ccccc2)cn1 | inactive: 23.3%
COc1ccc(C(=O)/C=C/c2ccc(O)cc2)c(O)c1CC=C(C)C | inconclusive: -51.3%
CC1CC(=O)N(CC(=O)Nc2ccc(Br)cc2)c2ccccc2S1(=O)=O (stereo not drawn) | active: -64.3%

Look-ups from the list.
CC(=O)c1ccc(N(CC(=O)NC2CCCCC2)C(=O)CNC(=O)c2ccco2)cc1 | activity change, negative = inhibition: inactive: 14%
CCOCCOC(=O)c1[nH]c2c(c1C)C(=O)CC(c1ccc(OC)c(OC)c1)C2 (stereo not drawn) | activity change, negative = inhibition: inconclusive: -44.3%
C=CCn1c(=O)[nH]c2cc(C(=O)N3CCN(c4cccc(Cl)c4)CC3)ccc2c1=O | activity change, negative = inhibition: inactive: -0.105%

Continued:

Structure (SMILES) | activity change, negative = inhibition
Cc1onc(-c2ccccc2)c1C(=O)c1c[nH]c(C(=O)NCc2ccncc2)c1 | inconclusive: -51.2%
COc1ccc(C(=O)Oc2cccc3cccnc23)cc1S(=O)(=O)N1CCOCC1 | inactive: -21.4%
Cc1ccc(S(=O)(=O)Nc2ccc3c4c(cccc24)CC3)c(C)c1 | active: -69.8%
COCCCNC(=O)CN1C(=O)c2c(c3ccccc3n2C)C1c1ccc(OC)cc1 (stereo not drawn) | inconclusive: 0%
COc1ccc(-c2csc(C)n2)cc1Br | inactive: 11.7%
Cc1cc(C)c2nc(SCC(=O)Nc3cc(C)on3)c(C#N)cc2c1 | inactive: -20.6%
Cc1cccc(N2C(S)=C(C#N)C(=O)NC23CCCCC3)c1 | inconclusive: -48.9%
Cc1ccc(Cl)cc1N1CCN(C(=O)Cc2csc(Nc3nc(=S)[nH]c4ccccc34)n2)CC1 | inconclusive: -53.1%
CSc1sc(C)cc1/C=N/O | inconclusive: -40.3%
COc1ccccc1CNC(c1ccccc1)c1ccccc1 | inactive: 35.8%
C/C(=N\Nc1cc(N2CCCCC2)nc(C)n1)c1ccc(Br)cc1 | active: -66.6%
CC(C)C(=O)OCC(=O)NCc1ccccc1Cl | inactive: 12.6%
Cn1c(SCC(=O)NC2CCCC2)nnc1-c1cccs1 | inconclusive: -49.2%
COC(=O)c1ccc(NC(=O)c2nn(C)c3c2CS(=O)(=O)c2ccccc2-3)cc1 | inactive: 0.0816%
COc1ccc(CCNc2nc3c(c(=O)n(C)c(=O)n3C)n2Cc2ccc(F)cc2)cc1OC | active: -90%
Cc1c(C(=O)N2CCOCC2)[nH]c2c1C(=O)CC(c1ccc(Cl)cc1)C2 (stereo not drawn) | inconclusive: -41.9%
Cc1ccc(Cn2c(C)c(CNC3CCCCC3)c(C(=O)O)c2C)cc1 | inactive: -4.65%
Cc1ccc(C(=O)Nc2ccncc2)cc1S(=O)(=O)N1CCCCC1 | inconclusive: -54.3%
COc1ccccc1C1C=C(c2ccc(C)cc2)Nc2nnnn21 (stereo not drawn) | inactive: 7.48%
CCOc1ccccc1CNC(=O)c1ccc(NC(=O)C2=CSCCO2)cc1 | inactive: -28%
COc1ccc(CNC(=O)CCc2c(C)nc3c(c2C)c(=O)n(C)c(=O)n3C)cc1 | inactive: -0.794%

— PubChem BioAssay AID1259415 (National Center for Advancing Translational Sciences (NCATS), 2018)
